These are yes or no findings as the source states them, for the method shown. In cells and extracts the contact can be indirect. Binding calls can cover weak binding; strength is not graded here.

The values below come from article PMC4882600.

In experiment [1] the target is T1, ras association domain family 1 (RASSF1) (human (endogenous in TE-8 and TE-12)) (UniProt Q9NS23).
T1 sequence: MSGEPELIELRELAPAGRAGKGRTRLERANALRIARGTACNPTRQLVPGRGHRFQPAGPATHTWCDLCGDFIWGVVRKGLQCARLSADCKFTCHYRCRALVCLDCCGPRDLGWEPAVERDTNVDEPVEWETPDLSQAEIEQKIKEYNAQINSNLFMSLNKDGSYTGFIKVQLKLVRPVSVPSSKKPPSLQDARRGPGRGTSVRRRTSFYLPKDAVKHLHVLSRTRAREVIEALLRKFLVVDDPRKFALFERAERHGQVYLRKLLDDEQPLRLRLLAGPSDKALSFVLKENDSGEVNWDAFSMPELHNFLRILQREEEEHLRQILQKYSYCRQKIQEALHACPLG
In words: co-IP; endogenous proteins of TE-8 and TE-12 cell lysates, cells with or without rhBMP-2 (Fig. 5B); precipitating antibody not stated for this experiment.

Experiment [2] addresses T1, ras association domain family 1 (RASSF1) (human (endogenous in TE-8 and TE-12)). Nature of the experiment: co-IP; endogenous proteins of TE-8 and TE-12 cell lysates, cells with or without 1 uM rhBMP-2; precipitated with a mouse monoclonal RASSF1 antibody and Protein A-Sepharose; lysis buffer 20 mM Tris HCl pH 8, 10% glycerol, 137 mM NaCl, 1% Nonidet P-40, 2 mM EDTA; blots.

“Akt (human (endogenous in TE-8 and TE-12))”: the binding entry in experiment [1] is listed as “binds”.
On to “Mob1 (human (endogenous in TE-8 and TE-12))”, for which the binding result in experiment [2] was “binds”.
